Results from PubChem BioAssay AID624297 (National Center for Advancing Translational Sciences (NCATS), 2012).
In all, about 340,000 compounds went through this assay and about 6,200 (1.8%) were called active. Inconclusive means that the source gave no clear call. Such entries were picked first, then a sample of the others. Calls follow the shape of the dose curve; as a rule, active = well fitted activation curve with a large enough effect; inconclusive = small, poorly fitted or top-dose-only effect; inactive = no such curve, though single readings can be large or run the other way. Potencies of inconclusive entries are doubtful fits and often do not repeat.

assay: A quantitative high throughput screen for small molecules that induce DNA re-replication in SW480 colon adenocarcinoma cells.; also: nearly all actives have a fitted effect of over 55% in size; as to re-replication activation: % of control where 0% means no effect; conditions: Hoechst DNA content imaging, 48 h; re-replication activation: at 46.1 µM (top of the series) unless noted
Method in brief: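 Quantitative HTS format with DMSO vehicle controls; 48 hr drug incubation at 37 C, then 40 min Hoechst staining and scanning imager measurement at 405 nm excitation.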
Potency is read from the fitted curve at half-maximal effect.

| SMILES | Potency | re-replication activation |
| --- | --- | --- |
| Oc1ccc(N2CCN(C(=S)NCc3ccccc3)CC2)cc1 | inconclusive: 20.6 µM [activator, partial curve, poor fit] | – |
| Cc1cc(C)cc(NS(=O)(=O)c2cccs2)c1 | inconclusive: 29.1 µM [activator, single point] | – |
| Cc1cnc(C(=O)Nc2nnc(C)s2)cn1 | – | inactive: -2.62% |
| Cc1ccc(S(=O)(=O)N(C)C)cc1NC(=O)c1n[nH]c(=O)c2ccccc12 | inconclusive: 23.1 µM [activator, single point] | – |
| Cc1nc2scc(-c3ccccc3)c2c(=O)n1N | – | inactive: -1.65% |
| C/C(=N/NC(=O)c1ccn(C)n1)c1ccncc1 | inconclusive: 1.84 µM [activator, single point] | – |
| COc1ccc(N=c2oc3c(OC)cccc3cc2C(=O)NCc2ccco2)cc1OC | – | inactive: 3.97% |
| CCN(CC)CCNC(=O)c1cc(-c2ccc(Br)s2)nc2ccccc12 | – | inconclusive: 79.7% [activator] |
| N#C/C(=C\c1cccc(Br)c1)C(=O)N1CCCCC1 | inconclusive: 25.9 µM [activator, single point] | – |
| CCn1c(SCC(=O)Nc2ccc(F)cc2)nnc1-c1cnccn1 | – | inactive: 3.62% |
| COc1ccc(-c2cn3nc4c(nc3n2)CCCC4)cc1 | inconclusive: 16.4 µM [activator, single point] | – |
| O=c1[nH]c(=O)n(Cc2ccco2)c2c1C(C(F)(F)F)(C(F)(F)F)N=C(CCc1ccccc1)N2 | – | inactive: 23.6% |
| O=C(c1ccc(COCC(F)(F)F)cc1)N1CCN(c2ccccn2)CC1 | – | inactive: -10.7% |
| Cc1ccccc1S(=O)(=O)Cc1ccc(C(=O)N2CCN(c3ccc(F)cc3)CC2)o1 | inconclusive: 23.1 µM [activator, partial curve, poor fit] | – |
| O=C(Nc1ccc2c(c1)OCCO2)C1CCN(C(=O)c2ccc(F)cc2)CC1 | inconclusive: 13 µM [activator, partial curve, poor fit] | – |
| COc1ccc(Nc2nc3cc(C)ccc3cc2C#N)c(OC)c1 | inconclusive: 3.26 µM [activator, full curve, poor fit] | – |
| CCOc1cc(/C=C/C(=O)c2ccc(C)cc2)ccc1OCC(=O)N(C)C | inconclusive: 7.31 µM [activator, partial curve, poor fit] | – |
| Cc1nnc(SCC(=O)Nc2ccc([N+](=O)[O-])cc2)n1CC1CCCO1 (stereo not drawn) | active: 23.1 µM | – |
| CC[C@H]1C(c2ccc(F)cc2)=NN(c2ccccc2)[C@@H]1CO | inconclusive: 2.06 µM [activator, full curve, poor fit] | – |
| Cc1ccc(C)c(CSc2nnc(CCN)o2)c1 | inconclusive: 18.4 µM [activator, single point] | – |
| Oc1ccc(Br)cc1/C=N/NC(=S)NCCc1ccccc1 | inconclusive: 23.1 µM [activator, single point] | – |
| COc1ccc(NS(=O)(=O)c2cc(OC)ccc2NC(=O)c2cc(C)oc2C)cc1 | active: 13 µM | – |
| CCOc1ccc2nc(N3C(=O)CNC3=S)sc2c1 | inconclusive: 20.6 µM [activator, single point] | – |

| SMILES | Potency | re-replication activation |
| --- | --- | --- |
| Cc1cc(OCc2cc(C(=O)N3CCN(CC4CC4)CC3)no2)cc(C)c1Cl | inconclusive: 23.1 µM [activator, single point] | – |
| CS(=O)(=O)c1ncc(Cl)c(C(=O)Nc2ccc(N3CCOCC3)cc2)n1 | active: 10.3 µM | – |
| COc1ccccc1NS(=O)(=O)c1cc(NC(=O)c2cccc(S(=O)(=O)N(C)C)c2)ccc1N1CCOCC1 | inconclusive: 25.9 µM [activator, single point] | – |
| COc1ccc(CCNC(=O)C2CCN(C(=O)c3ccc(C(C)(C)C)cc3)CC2)cc1 | inconclusive: 5.8 µM [activator, full curve, poor fit] | – |
| O=C(Nc1ccccc1)c1cc(N2CCOCC2)nc2ccccc12 | inconclusive: 32.6 µM [activator, partial curve, poor fit] | – |
| COc1cccc(NC(=O)c2ccc(S(=O)(=O)N(C)C)cc2)c1 | inconclusive: 6.51 µM [activator, single point] | – |
| CO/N=C(\C(=O)N[C@@H]1C(=O)N2C(C(=O)[O-])=C(C[N+]3(C)CCCC3)CS[C@@H]12)c1csc(N)n1 | – | inactive: -1.43% |
| COC(=O)C1=C(O)C2(C(=O)O)CC(C(=O)OC)=C(O)C(C(=O)O)(C1)C2 | – | inactive: 12% |
| CN1CCN(C2Cc3cc(F)ccc3Sc3ccc(Cl)cc32)CC1 (stereo not drawn) | inconclusive: 29.1 µM [activator, single point] | – |
| CC(=O)c1ccc(NC(=O)c2sc3nc(N4CCOCC4)c4c(c3c2N)CCCC4)cc1 | inconclusive: 1.3 µM [activator, partial curve, poor fit] | – |
| CCOc1ccc(N2C(=O)CC(Sc3n[nH]c(-c4ccccc4)n3)C2=O)cc1 (stereo not drawn) | – | inactive: 3.02% |
| CCc1cccc(NS(=O)(=O)c2c(C)nc3sc(CC)nn3c2=O)c1 | – | inactive: -15.1% |
| COc1ccc(S(=O)(=O)Cc2ccc(C(=O)N3CCN(c4cccc(C)c4)C(C)C3)o2)cc1 (stereo not drawn) | active: 14.6 µM | – |
| Cc1ccc(OCC(=O)Nc2ccc(S(=O)(=O)Nc3cc(C)nc(C)n3)cc2)c(C)c1 | inconclusive: 1.03 µM [activator, partial curve] | – |
| Cc1c2ccncc2cc2c1[nH]c1ccccc12 | active: 23.1 µM | – |
| CN1CCc2c(sc(NC(=O)C3CCCN3S(=O)(=O)c3ccc(Cl)s3)c2C(N)=O)C1 (stereo not drawn) | inconclusive: 29.1 µM [activator, partial curve, poor fit] | – |
| COc1ccc(N2CCN(CCCNC(=O)Cn3c(=O)c4cccn4c4ccccc43)CC2)cc1 | – | inactive: -0.225% |
| CCOC(=O)C(=CNc1ccc(Oc2cncc(Cl)c2)nc1)C(=O)OCC | inconclusive: 29.1 µM [activator, single point] | – |
| Cn1cnc([N+](=O)[O-])c1Sc1nnc(-c2cccnc2)n1C | inconclusive: 29.1 µM [activator, single point] | – |
| CCCCCCc1c(O)nc(SCCN2CCOCC2)[nH]c1=O | inconclusive: 16.4 µM [activator, single point] | – |
| CCOC(=O)Cc1c(C)c2ccc(N(CC)CC)cc2oc1=O | active: 14.6 µM | – |
| CC(=O)c1ccc(N/N=C(/C(N)=O)C2=NC(C)(C)Cc3ccccc32)cc1 | inconclusive: 29.1 µM [activator, single point] | – |
| CC(=O)Nc1ccc(NC(=O)C(C)OC(=O)c2cc(S(=O)(=O)N(C)C)ccc2N2CCCC2)cc1 (stereo not drawn) | inconclusive: 0.013 µM [activator, full curve, poor fit] | – |

| SMILES | Potency | re-replication activation |
| --- | --- | --- |
| CCOc1ccc(-c2c(C(=O)N/N=C/c3ccc(OC(C)C)cc3)nnn2-c2nonc2N)cc1 | inconclusive: 0.731 µM [activator, partial curve, poor fit] | – |
| CCn1ccnc1CN(C)Cc1cn(-c2ccc(C)cc2)nc1-c1ccc(F)cc1 | – | inactive: -5.45% |
| COc1cc2c(C(F)(F)F)c(-c3ccsc3)oc(=O)c2cc1OC | inconclusive: 32.6 µM [activator, single point] | – |
| O=C(NC1CCCc2c1cnn2-c1ccccc1F)c1ccccc1N1CCOCC1 (stereo not drawn) | – | inactive: -6.34% |
| CCC1Sc2ccccc2N(CC(=O)NCCC(C)C)C1=O (stereo not drawn) | – | inactive: -2.58% |
| COC(=O)c1cccc(Oc2cccc(Cl)n2)c1 | inconclusive: 20.6 µM [activator, single point] | – |
| O=C(Nc1cccc(F)c1)C1CCN(c2nnnn2-c2ccccc2)CC1 | inconclusive: 29.1 µM [activator, single point] | – |
| CN(C)S(=O)(=O)c1ccc(C(=O)NN2C(=O)NC3(CCCCC3)C2=O)cc1 | – | inactive: -8.5% |
| CCOC(=O)c1c(NC(=O)CSc2nc3ccc(OC)cc3[nH]2)sc2c1CC(C)(C)NC2(C)C | inconclusive: 23.1 µM [activator, single point] | – |
| Cc1cccc(OCc2occc2C(=O)Nc2cccc(-n3cnnn3)c2)c1 | – | inactive: -0.556% |
| CC(CCc1ccccc1)NC(=O)c1ccc(NC(=O)c2cccc(Br)c2)cc1 (stereo not drawn) | inconclusive: 16.4 µM [activator, single point] | – |
| CCN1CCCC1CN(Cc1cc2ccc(C)c(C)c2[nH]c1=O)C(=O)Nc1ccccc1OC (stereo not drawn) | inconclusive: 29.1 µM [activator, single point] | – |
| CCCc1nc2oc3c(NCCCN(C)C)ncnc3c2c2c1CCCC2 | inconclusive: 29.1 µM [activator, single point] | – |
| COc1ccc(CCNC(=O)c2cc3c(=O)n4cccc(C)c4nc3n(CCCN3CCOCC3)c2=N)cc1 | active: 2.59 µM | – |
| COCCNC(=O)c1cc2nc3c(c(C(F)(F)F)n2n1)CCc1ccccc1-3 | inconclusive: 16.4 µM [activator, partial curve, poor fit] | – |
| CCOC(=O)C1(C(F)(F)F)N=C(C(F)(F)F)Nc2ccc(F)cc21 (stereo not drawn) | active: 13 µM | – |
| CC[N+]1(CC)CC2=Cc3c(ccc4ccccc34)C(C)C2C1 (stereo not drawn) | inconclusive: 29.1 µM [activator, single point] | – |
| C[C@H](NC(=O)[C@@H]1CSC2c3ccccc3C(=O)N21)C(=O)NC1CCCCC1 (stereo partly drawn) | inconclusive: 29.1 µM [activator, single point] | – |
| Cc1cc(NC(=O)c2coc(=O)c(Br)c2)ccc1C(C)C | inconclusive: 0.366 µM [activator, full curve, poor fit] | – |
| Cc1ccc(CNCCCn2cnc3c(OCc4ccccc4)ncnc32)o1 | inconclusive: 1.16 µM [activator, partial curve, poor fit] | – |
| Cc1cccc(-n2c(C)cc(C(=O)NC3CCCCC3)c2C)c1 | inconclusive: 29.1 µM [activator, single point] | – |
| O=C(CN1C(=O)C2CC=CCC2C1=O)Nc1cc(C(F)(F)F)ccc1N1CCCC1 (stereo not drawn) | – | inactive: 3.63% |

An excerpt from above in order of SMILES length, largest number first:

| SMILES | Potency | re-replication activation |
| --- | --- | --- |
| CCn1ccnc1CN(C)Cc1cn(-c2ccc(C)cc2)nc1-c1ccc(F)cc1 | – | inactive: -5.45% |
| Cc1ccc(CNCCCn2cnc3c(OCc4ccccc4)ncnc32)o1 | inconclusive: 1.16 µM [activator, partial curve, poor fit] | – |
| Cc1cc(NC(=O)c2coc(=O)c(Br)c2)ccc1C(C)C | inconclusive: 0.366 µM [activator, full curve, poor fit] | – |
